PubChem BioAssay AID1259308 – NCATS, 2017
The deposit covers about 59,000 reagents; this is a random part of them. Of all reagents, about 1,510 (2.6%) were called active. 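Calls use total luciferase alone and ignore viability, so some active siRNAs may act by altering cell number.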 The numbers tell different reagents against one gene apart. Not all columns of the deposit are shown.

Purpose: 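Knock-downs that increase output of a recombinant reporter protein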 (primary screen)
System: human HEK293 embryonic kidney cells stably expressing firefly luciferase (HEK-CMV-Luc2-Hygro)
Reagent: single siRNA against human genes, 0.8 pmol siRNA per well
Time to read-out: 72 h
Read-out: 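Reporter luminescence and viable-cell signal on separate replicate plates, given as percent of non-targeting control and median/MAD z-scores, plus per-cell luciferase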
Reading the numbers: total luciferase, z-score: higher = more reporter protein produced
Call rule: 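An siRNA counts as active if its total luciferase robust z-score exceeds 3; genes with two or more such siRNAs out of three were retested with fresh siRNAs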
Calls: active = raised luciferase; inactive = no rise

total luciferase, z-score, by gene symbol and reagent
FOXO4: #1 -1.01 inactive; #2 3.81 active; #3 -0.511 inactive
NDUFB4: #1 -0.436 inactive; #2 3.2 active; #3 -0.0303 inactive
KRTAP15-1: #1 -0.0424 inactive; #2 1.72 inactive; #3 -0.308 inactive
DDX12P: #1 0.425 inactive; #2 1.16 inactive; #3 1.53 inactive
FAM184A: #1 0.513 inactive; #2 -0.942 inactive; #3 0.112 inactive
MKI67: #1 -1.8 inactive; #2 -0.447 inactive; #3 -0.264 inactive
HAX1: #1 -0.606 inactive; #2 -0.496 inactive; #3 0.0431 inactive
OR52N2: #1 -1.03 inactive; #2 -0.941 inactive; #3 -0.151 inactive

No new results follow: 4 of the entries above.
total luciferase, z-score, by gene symbol and reagent
NDUFB4: #1 -0.436 inactive; #2 3.2 active; #3 -0.0303 inactive
KRTAP15-1: #1 -0.0424 inactive
